Among the data in paper doi:10.64898/2025.12.13.694125 are binding values, retold here.

Sequences of proteins named here, by UniProt entry; tags and fusion partners are left off. Residues count along the entry.
UniProt Q03265, residues 44-553: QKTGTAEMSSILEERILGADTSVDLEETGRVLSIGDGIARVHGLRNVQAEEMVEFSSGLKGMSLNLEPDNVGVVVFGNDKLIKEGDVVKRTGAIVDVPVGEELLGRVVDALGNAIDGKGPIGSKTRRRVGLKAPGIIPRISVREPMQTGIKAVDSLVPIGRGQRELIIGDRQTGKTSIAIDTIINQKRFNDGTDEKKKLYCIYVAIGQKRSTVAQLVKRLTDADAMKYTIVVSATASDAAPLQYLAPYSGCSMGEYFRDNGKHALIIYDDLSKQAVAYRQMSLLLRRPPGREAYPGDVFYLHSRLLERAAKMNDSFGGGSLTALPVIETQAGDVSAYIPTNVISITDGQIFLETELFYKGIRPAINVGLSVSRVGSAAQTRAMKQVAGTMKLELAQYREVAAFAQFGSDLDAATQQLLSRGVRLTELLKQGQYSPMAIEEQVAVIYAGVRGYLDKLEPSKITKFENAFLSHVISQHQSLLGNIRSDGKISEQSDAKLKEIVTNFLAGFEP
UniProt P56480, residues 47-529: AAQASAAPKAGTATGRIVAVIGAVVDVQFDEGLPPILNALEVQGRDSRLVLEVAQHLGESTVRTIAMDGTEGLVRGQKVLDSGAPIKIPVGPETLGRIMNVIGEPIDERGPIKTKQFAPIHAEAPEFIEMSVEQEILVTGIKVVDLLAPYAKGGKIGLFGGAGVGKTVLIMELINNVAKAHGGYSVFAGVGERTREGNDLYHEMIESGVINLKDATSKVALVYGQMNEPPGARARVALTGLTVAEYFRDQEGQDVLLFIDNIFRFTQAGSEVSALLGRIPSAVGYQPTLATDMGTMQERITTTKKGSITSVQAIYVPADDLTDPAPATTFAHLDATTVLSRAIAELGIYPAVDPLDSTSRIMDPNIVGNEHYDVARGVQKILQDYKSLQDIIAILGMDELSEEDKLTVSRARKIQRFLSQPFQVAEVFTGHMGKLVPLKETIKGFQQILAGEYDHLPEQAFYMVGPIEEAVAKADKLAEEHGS
UniProt Q99KR7, residues 30-206: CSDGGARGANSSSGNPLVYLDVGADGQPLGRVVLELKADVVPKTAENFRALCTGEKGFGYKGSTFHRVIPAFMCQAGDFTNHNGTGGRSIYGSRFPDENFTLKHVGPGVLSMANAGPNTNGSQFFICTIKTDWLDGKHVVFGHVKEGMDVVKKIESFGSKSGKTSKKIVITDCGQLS

These are yes or no findings as the source states them, for the method shown. In cells and extracts the contact can be indirect. Some entries that bind do so weakly or less than the wild type.

Assay in all cases: cross-linking
Experiment [1] addresses T1, peripheral stalk subunit ATP5J (mouse (endogenous in heart mitochondria)) (UniProt P97450).
T1 sequence: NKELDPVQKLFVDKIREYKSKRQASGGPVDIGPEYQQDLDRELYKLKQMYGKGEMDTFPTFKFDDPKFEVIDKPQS

The target of experiment [2] is ATP synthase F1 catalytic head α subunit (ATPA) (mouse (endogenous in heart mitochondria)) (UniProt Q03265).
In experiment [3] the target is ATP synthase F1 catalytic head β subunit (ATPB) (mouse (endogenous in heart mitochondria)) (UniProt P56480).

As for “ATP synthase F1 catalytic head β subunit (ATPB) (from UniProt P56480 47-529)”, the binding entry in experiment [1] is “binds”.

Take “PPIF (Cyclophilin D) (from UniProt Q99KR7 30-206) (enzyme)”: the binding entry in experiment [2] and in experiment [3] was “binds” throughout.
